Test results published in PubChem BioAssay AID2551 (National Center for Advancing Translational Sciences (NCATS), 2010).
The whole screen tested about 310,000 compounds, of which about 17,000 (5.5%) were called active. Inconclusive results, whose numbers are uncertain, are shown with a selection of clear calls. Calls follow the shape of the dose curve; as a rule, active = well fitted inhibition curve with a large enough effect; inconclusive = small, poorly fitted or top-dose-only effect, or effect the other way; inactive = no such curve, though single readings can be large or run the other way. Potencies beside an inconclusive call are fits to weak or partial responses and may not hold up.

Amino acid sequences for entries named in this document (tags omitted). A change or cut given only in a name is not applied to a line headed by its entry.
UniProt P51450: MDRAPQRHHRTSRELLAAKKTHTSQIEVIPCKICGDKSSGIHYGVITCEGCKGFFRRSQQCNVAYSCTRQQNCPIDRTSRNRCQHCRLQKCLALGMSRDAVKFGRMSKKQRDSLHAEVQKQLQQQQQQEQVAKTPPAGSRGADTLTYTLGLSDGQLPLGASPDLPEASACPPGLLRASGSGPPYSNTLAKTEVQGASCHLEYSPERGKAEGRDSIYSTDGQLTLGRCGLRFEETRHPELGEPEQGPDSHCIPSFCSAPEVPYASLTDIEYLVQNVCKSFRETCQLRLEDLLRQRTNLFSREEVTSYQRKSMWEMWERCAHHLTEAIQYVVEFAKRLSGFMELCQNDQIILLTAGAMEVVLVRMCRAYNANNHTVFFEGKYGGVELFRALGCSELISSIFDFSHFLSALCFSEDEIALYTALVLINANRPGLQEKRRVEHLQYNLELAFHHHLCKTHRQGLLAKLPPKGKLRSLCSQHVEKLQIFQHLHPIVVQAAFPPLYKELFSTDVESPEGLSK

What follows are compounds tested against Nuclear receptor ROR-gamma (Mus musculus) (UniProt P51450) (assay: qHTS for inhibitors of ROR gamma transcriptional activity). Conditions: Drosophila S2 Gal4-RORgamma UAS-luciferase reporter, 20 h; series mostly up to 53.6 µM.
In short: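 Using a luciferase readout, inhibitors were identified by reduced reporter activity in Drosophila cells coexpressing a copper-inducible Gal4–ROR gamma fusion and UAS-driven Photinus luciferase, incubated 20 hr after 700 uM copper sulfate.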
Also: nearly all actives have a fitted effect of over 60% in size.
Potency is read from the fitted curve at half-maximal effect.

Compound	Potency
CCOC(=O)c1sc(NC(=S)NC(=O)c2cccc(OC)c2)nc1C	active: 8.91 µM
Cc1ccc(C(=O)/C=C/c2ccc(-c3ccc(C)cc3)o2)cc1	inactive
CCOCCCNC(=O)CCSc1ccc(C)cc1	inactive
COc1ccc(/C=N/NC(=O)c2cccnc2)cc1CSc1nc2ccccc2s1	inconclusive: 17.8 µM [inhibitor, single point]
COCCN(Cc1cc2ccc(C)cc2n2nnnc12)Cc1nnnn1C(C)(C)C	inconclusive: 0.501 µM [inhibitor, full curve, poor fit]
O=C(Nc1ccc(N2CCOCC2)c(Cl)c1)c1ncn[nH]1	inconclusive: 35.5 µM [inhibitor, single point]
Cc1cc(C)c[n+](C(C)C(=O)c2ccc(-c3ccccc3)cc2)c1 (stereo not given)	inconclusive: 11.2 µM [activator, partial curve]
COc1ccc(-c2coc3c(OC)c(OC)cc(O)c3c2=O)cc1	inconclusive: 25.1 µM [activator, single point]
O=C(/C=C/c1ccc(Cl)cc1Cl)N1CCc2ccccc21	inconclusive: 11.2 µM [inhibitor, single point]
Clc1ccc(-c2nnc(-c3ccccc3Cl)o2)cc1	inconclusive: 11.2 µM [inhibitor, partial curve]
O=C(CSc1nnnn1-c1ccc(Cl)cc1)N1CCc2ccccc2C1	inconclusive: 35.5 µM [inhibitor, single point]
Cc1cccnc1NC(=S)NC(=O)c1cncc(Br)c1	active: 5.01 µM
COc1ccc(-n2c(CN3CCN(c4ccccc4OC)CC3)nc3ccc([N+](=O)[O-])cc3c2=O)c(OC)c1	inactive
COc1ccc(/C=N\NC(=O)c2ccccc2Br)cc1COc1ccc(F)cc1	inconclusive: 15.8 µM [activator, single point]
CC(OC(=O)c1ccccc1N1C(=O)C2C3CCC(C3)C2C1=O)C(=O)c1ccccc1 (stereo not given)	inconclusive: 3.98 µM [activator, full curve]
C/C(=N\O)c1c(O)cc(-c2ccccc2)n(-c2ccccc2)c1=O	inconclusive: 10 µM [inhibitor, partial curve]
CCc1ccc(NC(=S)Nc2cccc(OC)c2)cc1	active: 7.94 µM
CCN(C(=O)COC(=O)c1cc(-c2cccs2)nc2ccccc12)C1CCS(=O)(=O)C1 (stereo not given)	inactive
COc1ccc(CC(=O)N2CCOCC2)cc1	inconclusive: 35.5 µM [inhibitor, partial curve, poor fit]
CC1(C)C=C(c2ccc(C=O)s2)CC(C)(C)N1C=O	inactive

Part of the list above, reformatted.
Cc1cc(C)c[n+](C(C)C(=O)c2ccc(-c3ccccc3)cc2)c1 (stereo not given)
  Potency: inconclusive: 11.2 µM [activator, partial curve]
COc1ccc(-c2coc3c(OC)c(OC)cc(O)c3c2=O)cc1
  Potency: inconclusive: 25.1 µM [activator, single point]
